Reference: US5750506 (dated 1998)

Experiment: Boc solid-phase peptide synthesis; Boc-(N^w -tosyl)-arginine PAM resin; HOBt/carbodiimide preactivation
Settings: whole synthesis, scale 0.5 mmole

Q: Which isolated mass does the source give for “D-Arginyl-L-arginyl-L-prolyl-L-(4R-hydroxy)-prolyl-glycyl-L-phenylalanyl-(S-(4-n-hexyl)-phenyl)-cysteine-D-phenylalanyl-L-leucyl-L-arginine” here?
A: 200 mg
